In the supplement of paper PMC6078165:

Test system: MDAMB436
Experiment: relative JC-1 red fluorescence (viability) vs pre-drug, coculture with fibroblast (fraction); higher = more viable cancer cells
Details: 100 µM
Procedure: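 JC-1 labelled TNBC cells cocultured 1:1 (1,500 cells each) with CellTrace Violet stained primary or stromal fibroblasts in 384-well plates in FluoroBrite medium, treated with one of 42 anticancer drugs at 0.1, 1, 10 or 100 uM. JC-1 red fluorescence (mitochondrial integrity in cancer cells only) was read by plate reader every 8 h for 72 h. Values are normalised to each well's pre-drug value. The stock of one drug was tenfold lower, so its dose labels may be too high.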

CC(C)C[C@H](NC(=O)[C@H](Cc1ccccc1)NC(=O)c1cnccn1)B(O)O [Bortezomib]
relative JC-1 red fluorescence
Details | 8 h | 16 h | 24 h | 32 h | 40 h | 48 h | 56 h | 64 h | 72 h
coculture fibroblast: C12385 | 0.8382 ± 0.0068 | 0.737 ± 0.015 | 0.676 ± 0.017 | 0.576 ± 0.012 | 0.5084 ± 0.0047 | 0.481 ± 0.01 | 0.4599 ± 0.0024 | 0.436 ± 0.0088 | 0.429 ± 0.0074
coculture fibroblast: H6013 | 0.889 ± 0.013 | 0.813 ± 0.019 | 0.756 ± 0.019 | 0.7354 ± 0.0049 | 0.7277 ± 0.0015 | 0.7536 ± 0.0063 | 0.738 ± 0.012 | 0.732 ± 0.016 | 0.706 ± 0.014
coculture fibroblast: H6019 | 0.8187 ± 0.0073 | 0.745 ± 0.018 | 0.766 ± 0.015 | 0.714 ± 0.012 | 0.714 ± 0.0056 | 0.7266 ± 0.0072 | 0.7184 ± 0.0024 | 0.732 ± 0.0092 | 0.7326 ± 0.00018
coculture fibroblast: H6076 | 0.813 ± 0.034 | 0.709 ± 0.029 | 0.605 ± 0.03 | 0.555 ± 0.018 | 0.559 ± 0.013 | 0.544 ± 0.013 | 0.552 ± 0.021 | 0.558 ± 0.024 | 0.561 ± 0.015
coculture fibroblast: H6231 | 0.795 ± 0.0084 | 0.7 ± 0.015 | 0.572 ± 0.029 | 0.578 ± 0.02 | 0.545 ± 0.022 | 0.508 ± 0.023 | 0.497 ± 0.01 | 0.458 ± 0.0073 | 0.443 ± 0.0083
coculture fibroblast: HADF | 0.8684 ± 0.0083 | 0.802 ± 0.023 | 0.746 ± 0.019 | 0.715 ± 0.03 | 0.704 ± 0.038 | 0.722 ± 0.041 | 0.684 ± 0.043 | 0.68 ± 0.045 | 0.633 ± 0.046
coculture fibroblast: HCFa | 0.8497 ± 0.001 | 0.746 ± 0.011 | 0.697 ± 0.027 | 0.664 ± 0.031 | 0.652 ± 0.021 | 0.66 ± 0.013 | 0.616 ± 0.012 | 0.607 ± 0.012 | 0.553 ± 0.0071
coculture fibroblast: HCPF | 0.846 ± 0.049 | 0.752 ± 0.051 | 0.671 ± 0.051 | 0.575 ± 0.033 | 0.525 ± 0.022 | 0.484 ± 0.015 | 0.448 ± 0.0095 | 0.4297 ± 0.0041 | 0.4 ± 0.0056
coculture fibroblast: HHSteC | 0.881 ± 0.018 | 0.804 ± 0.024 | 0.786 ± 0.035 | 0.748 ± 0.04 | 0.74 ± 0.057 | 0.76 ± 0.063 | 0.711 ± 0.069 | 0.699 ± 0.076 | 0.65 ± 0.062
coculture fibroblast: HMF | 0.821 ± 0.021 | 0.729 ± 0.031 | 0.643 ± 0.022 | 0.552 ± 0.024 | 0.53 ± 0.035 | 0.503 ± 0.025 | 0.498 ± 0.018 | 0.487 ± 0.025 | 0.479 ± 0.021
coculture fibroblast: HPFa | 0.9348 ± 0.0037 | 0.833 ± 0.022 | 0.7955 ± 0.0018 | 0.7661 ± 0.0057 | 0.7741 ± 0.0072 | 0.8107 ± 0.0041 | 0.7461 ± 0.007 | 0.7364 ± 0.0034 | 0.694 ± 0.014
coculture fibroblast: HUF | 0.876 ± 0.011 | 0.749 ± 0.014 | 0.724 ± 0.031 | 0.651 ± 0.02 | 0.599 ± 0.015 | 0.568 ± 0.011 | 0.547 ± 0.017 | 0.53 ± 0.0099 | 0.525 ± 0.014
coculture fibroblast: Hs5 | 0.829 ± 0.035 | 0.751 ± 0.028 | 0.657 ± 0.051 | 0.59 ± 0.039 | 0.568 ± 0.042 | 0.522 ± 0.041 | 0.53 ± 0.05 | 0.502 ± 0.049 | 0.48 ± 0.048
coculture fibroblast: Hs27A | 0.862 ± 0.046 | 0.801 ± 0.063 | 0.766 ± 0.09 | 0.731 ± 0.13 | 0.721 ± 0.15 | 0.745 ± 0.17 | 0.703 ± 0.15 | 0.691 ± 0.15 | 0.617 ± 0.15
coculture fibroblast: Hs343T | 0.844 ± 0.023 | 0.763 ± 0.041 | 0.645 ± 0.013 | 0.592 ± 0.009 | 0.563 ± 0.029 | 0.533 ± 0.034 | 0.518 ± 0.044 | 0.508 ± 0.042 | 0.504 ± 0.041
coculture fibroblast: WS1 | 0.822 ± 0.023 | 0.696 ± 0.027 | 0.6247 ± 0.0041 | 0.526 ± 0.008 | 0.48 ± 0.0081 | 0.451 ± 0.015 | 0.428 ± 0.011 | 0.404 ± 0.011 | 0.391 ± 0.017

± gives the standard deviation of the averaged measurements. The reference is the same well before dosing, and untreated signal decays as well.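 Fibroblast labels denote human fibroblasts, mainly primary ones from uterus (C12385, HUF), lung (H6013), bone (Hs27A), adrenal (HADF) and skin (WS1), plus mammary HMF and breast cancer-associated Hs343T. Cancer cells are basal-like or mesenchymal-like triple-negative breast cancer lines. A hit is a response shift exceeding 3x replicate standard deviation. The tissue of the other fibroblasts is not given here.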
